Laboratory results reported in patent publication US10968222B2, “2-azabicyclo hexane JAK inhibitor compound” (THERAVANCE BIOPHARMA R&D IP, LLC, priority 2018, dated 2021).
For at least one compound, name, drawing or mass did not settle the structure.

Tested on: IL-6 induced pSTAT3 in rat retina/choroid
Assay: Pharmacodynamic assay: inhibition of IL6-induced pSTAT3 in rats
Assay type: in vivo
Conditions: intravitreal dosing; rat retina/choroid tissue
Experimental: The ability of a single intravitreal administration of test compound to inhibit IL-6 induced pSTAT3 was measured in rat retina/choroid homogenates.
A solution formulation was prepared by dissolving compound 1 in 1% HPMC E5+15% HPβCD, pH7 to attain a target concentration of […]. Female Lewis rats were intravitreally (IVT) dosed (5 μL per eye) with either the vehicle, vehicle plus rat IL-6 (Peprotech; 0.5 μg), or a combination of IL-6 plus compound (0.5 μg IL-6 and 45 μg compound 1). Ocular tissues were dissected one hour after the IVT injection. The retina/choroid tissues were homogenized and pSTAT3 levels were measured using an AlphaLisa (PerkinElmer). The percent inhibition of IL-6-induced pSTAT3 was calculated in comparison to the vehicle and IL-6 groups.

CCc1cc(O)c(F)cc1-c1cc(F)c2c(-c3nc4c([nH]3)CCN(C(=O)[C@]35C[C@H]3CCN5)C4)n[nH]c2c1 [Compound 1, (1S,5R)-2-azabicyclo[3.1.0]hexan-1-yl(2-(6-(2-ethyl-5-fluoro-4-hydroxyphenyl)-4-fluoro-1H-indazol-3-yl)-6,7-dihydro-3H-imidazo[4,5-c]pyridin-5(4H)-yl)methanone]
inhibition of IL-6 induced pSTAT3 (in words): significant inhibition
